Test results reported in article PMC2978116.
No constants are given. Whether binding was seen depends on the method and setting. In cells and extracts the contact can be indirect. Some binding calls cover weakened binding; strength is not graded here.

The chains behind the UniProt entries cited, without tags or fusion partners.
UniProt P05412: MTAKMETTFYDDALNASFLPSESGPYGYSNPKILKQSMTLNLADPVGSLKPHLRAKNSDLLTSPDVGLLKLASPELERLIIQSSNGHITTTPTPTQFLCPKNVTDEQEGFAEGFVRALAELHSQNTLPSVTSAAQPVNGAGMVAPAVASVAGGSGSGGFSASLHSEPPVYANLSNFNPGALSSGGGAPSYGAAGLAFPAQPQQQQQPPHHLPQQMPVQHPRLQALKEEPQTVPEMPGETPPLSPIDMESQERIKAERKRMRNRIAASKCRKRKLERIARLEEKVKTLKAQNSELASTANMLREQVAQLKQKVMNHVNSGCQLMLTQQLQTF
UniProt O60675: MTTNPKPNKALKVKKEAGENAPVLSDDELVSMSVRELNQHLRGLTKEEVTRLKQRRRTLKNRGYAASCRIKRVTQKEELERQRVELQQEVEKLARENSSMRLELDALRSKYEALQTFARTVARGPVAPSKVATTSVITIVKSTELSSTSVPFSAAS
UniProt P19838: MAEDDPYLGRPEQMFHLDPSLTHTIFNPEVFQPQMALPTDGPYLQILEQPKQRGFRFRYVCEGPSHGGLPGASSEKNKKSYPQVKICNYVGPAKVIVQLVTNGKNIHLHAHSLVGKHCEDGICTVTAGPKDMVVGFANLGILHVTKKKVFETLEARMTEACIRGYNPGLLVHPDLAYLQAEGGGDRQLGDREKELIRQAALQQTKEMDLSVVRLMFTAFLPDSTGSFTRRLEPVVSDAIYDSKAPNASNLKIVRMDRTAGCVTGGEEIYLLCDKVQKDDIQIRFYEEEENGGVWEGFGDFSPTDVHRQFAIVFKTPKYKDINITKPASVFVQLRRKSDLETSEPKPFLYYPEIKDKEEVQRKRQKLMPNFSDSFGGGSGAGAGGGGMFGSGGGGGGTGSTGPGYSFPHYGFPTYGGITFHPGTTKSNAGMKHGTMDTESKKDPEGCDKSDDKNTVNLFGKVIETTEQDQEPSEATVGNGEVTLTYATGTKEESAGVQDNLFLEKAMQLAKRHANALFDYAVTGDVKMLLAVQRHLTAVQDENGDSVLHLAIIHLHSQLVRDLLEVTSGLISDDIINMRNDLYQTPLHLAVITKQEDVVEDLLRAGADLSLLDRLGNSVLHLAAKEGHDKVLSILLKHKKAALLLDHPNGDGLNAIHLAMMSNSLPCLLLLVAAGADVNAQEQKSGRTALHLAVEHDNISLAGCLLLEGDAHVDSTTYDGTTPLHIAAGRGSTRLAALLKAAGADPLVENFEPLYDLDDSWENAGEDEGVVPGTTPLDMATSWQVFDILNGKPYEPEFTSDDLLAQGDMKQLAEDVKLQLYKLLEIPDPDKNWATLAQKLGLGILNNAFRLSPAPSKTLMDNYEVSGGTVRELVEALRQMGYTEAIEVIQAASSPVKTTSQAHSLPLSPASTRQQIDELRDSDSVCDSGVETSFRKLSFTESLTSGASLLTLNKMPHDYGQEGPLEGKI
UniProt Q53GL0: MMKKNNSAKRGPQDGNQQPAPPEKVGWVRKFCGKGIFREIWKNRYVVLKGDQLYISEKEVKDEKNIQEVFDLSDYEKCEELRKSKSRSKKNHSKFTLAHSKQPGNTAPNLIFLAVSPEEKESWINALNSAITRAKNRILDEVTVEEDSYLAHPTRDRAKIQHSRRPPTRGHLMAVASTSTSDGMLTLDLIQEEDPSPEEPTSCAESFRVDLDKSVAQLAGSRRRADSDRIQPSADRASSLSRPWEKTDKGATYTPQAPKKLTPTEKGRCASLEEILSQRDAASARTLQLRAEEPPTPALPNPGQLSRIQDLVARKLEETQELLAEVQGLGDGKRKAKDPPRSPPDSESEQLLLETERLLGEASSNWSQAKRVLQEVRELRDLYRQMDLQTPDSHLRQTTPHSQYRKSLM
UniProt Q16236: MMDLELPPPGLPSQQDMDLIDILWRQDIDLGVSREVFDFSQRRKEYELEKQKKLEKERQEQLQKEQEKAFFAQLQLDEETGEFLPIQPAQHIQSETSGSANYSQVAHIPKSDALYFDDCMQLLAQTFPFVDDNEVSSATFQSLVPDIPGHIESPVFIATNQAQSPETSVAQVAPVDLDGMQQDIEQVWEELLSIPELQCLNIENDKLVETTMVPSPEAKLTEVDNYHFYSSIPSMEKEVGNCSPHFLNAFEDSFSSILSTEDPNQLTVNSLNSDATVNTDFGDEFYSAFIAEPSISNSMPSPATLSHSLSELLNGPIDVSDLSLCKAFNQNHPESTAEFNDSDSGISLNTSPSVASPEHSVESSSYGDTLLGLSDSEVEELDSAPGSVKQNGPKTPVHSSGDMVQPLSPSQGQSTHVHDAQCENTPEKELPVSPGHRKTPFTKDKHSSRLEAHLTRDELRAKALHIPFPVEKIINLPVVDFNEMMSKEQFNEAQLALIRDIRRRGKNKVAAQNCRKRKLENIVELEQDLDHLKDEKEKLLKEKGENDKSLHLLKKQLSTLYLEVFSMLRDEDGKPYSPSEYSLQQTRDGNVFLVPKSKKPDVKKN
UniProt Q04206: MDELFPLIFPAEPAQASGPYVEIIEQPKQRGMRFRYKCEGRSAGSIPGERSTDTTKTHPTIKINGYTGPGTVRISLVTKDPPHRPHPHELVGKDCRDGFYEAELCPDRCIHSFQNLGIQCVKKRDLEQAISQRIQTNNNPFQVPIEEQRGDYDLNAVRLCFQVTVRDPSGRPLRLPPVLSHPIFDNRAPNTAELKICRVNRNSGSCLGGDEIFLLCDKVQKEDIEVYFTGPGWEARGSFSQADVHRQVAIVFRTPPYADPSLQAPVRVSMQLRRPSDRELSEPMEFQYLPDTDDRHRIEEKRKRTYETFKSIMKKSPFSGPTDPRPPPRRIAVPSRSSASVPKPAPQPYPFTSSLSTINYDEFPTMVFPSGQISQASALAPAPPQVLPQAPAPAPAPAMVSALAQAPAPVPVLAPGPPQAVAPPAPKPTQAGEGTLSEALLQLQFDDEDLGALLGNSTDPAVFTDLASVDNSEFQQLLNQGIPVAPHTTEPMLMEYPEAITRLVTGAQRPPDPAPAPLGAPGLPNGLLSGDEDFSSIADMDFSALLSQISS

What was measured:
Experiment in all cases: co-IP; miniaturized sandwich immunoassay platform (MSIP): lysate of co-transfected HEK293 cells (EBC buffer) incubated at room temperature on aldehyde slides spotted with anti-FLAG antibody; FLAG-bait captured, myc-prey detected with anti-myc-Cy3 (1:200); read-out net fluorescence intensity (NFI) after subtraction of murine IgG spots and of the control without bait
[1] = target: c-Jun (UniProt P05412)
[2] = target: MafK (UniProt O60675)
[3] = target: NF-κB1 (UniProt P19838)

CKIP-1 (from UniProt Q53GL0 1-409)
binding [1]: binds

Nrf2 (from UniProt Q16236 1-605)
binding [2]: binds

RelA (from UniProt Q04206 1-551)
binding [3]: binds
